Values of other authors in article PMC6581027, “In vitro Radiopharmaceutical Evidence for MCHR1 Binding Sites in Murine Brown Adipocytes” (Frontiers in Endocrinology, 2019).
“And” between values parts separate entries of the source, which are not always exact repeats. Equal values may be shown once.

Molecular target: ADRB3
Parameters: method as in PMID 14730417, PMID 8719421, PMID 7903415, PMID 2570461
Settings: literature values for standard compounds; ref [43], [45]–[47]; read-out: Ki ADRB3 reference; cited from earlier work

CC(C)NC[C@H](O)COc1cccc2ccccc12.Cl [(S)-propranolol, (S)-propranolol hydrochloride]
Ki: 186 nM and 145 nM
